Results are given in words; binding and its absence hold for the method and conditions named. Binding seen in cells or lysates may run through a third protein. Some entries that bind do so weakly or less than the wild type.
What was measured:
[1] = target: endogenous PINK1 (PTEN-induced kinase 1) of SH-SY5Y cells (human (endogenous in SH-SY5Y)) (UniProt Q9BXM7); assay: co-IP; SH-SY5Y cells transfected with FLAG-FBW7β for 48 h, then 20 μM MG132 for 4 h; lysates immunoprecipitated with anti-PINK1 antibody (endogenous PINK1), preimmune IgG as negative control, then immunoblotted
[2] = target: endogenous PINK1 (PTEN-induced kinase 1) of SH-SY5Y cells (human (endogenous in SH-SY5Y)) (UniProt Q9BXM7); assay: proximity ligation; Duolink PLA kit in SH-SY5Y cells with primary antibodies against endogenous PINK1 and FBW7β
[3] = target: Myc-tagged human WT PINK1 (PTEN-induced kinase 1) (human) (UniProt Q9BXM7); assay: co-IP; HEK293 cells co-transfected for 24 h with PINK1-Myc and one FLAG-FBW7 isoform; total lysates (50 mM Tris pH 7.5, 150 mM NaCl, 1.0% Nonidet P-40, 10% glycerol) immunoprecipitated with anti-PINK1 antibody overnight at 4 °C, then immunoblotted

Amino acid sequences for entries named in this document (tags omitted). A change or cut given only in a name is not applied to a line headed by its entry. Chains listed by the source or under a name are the forms on record and can include a tag or linker. Residues count along the entry.
UniProt Q9BXM7, residues 78-581: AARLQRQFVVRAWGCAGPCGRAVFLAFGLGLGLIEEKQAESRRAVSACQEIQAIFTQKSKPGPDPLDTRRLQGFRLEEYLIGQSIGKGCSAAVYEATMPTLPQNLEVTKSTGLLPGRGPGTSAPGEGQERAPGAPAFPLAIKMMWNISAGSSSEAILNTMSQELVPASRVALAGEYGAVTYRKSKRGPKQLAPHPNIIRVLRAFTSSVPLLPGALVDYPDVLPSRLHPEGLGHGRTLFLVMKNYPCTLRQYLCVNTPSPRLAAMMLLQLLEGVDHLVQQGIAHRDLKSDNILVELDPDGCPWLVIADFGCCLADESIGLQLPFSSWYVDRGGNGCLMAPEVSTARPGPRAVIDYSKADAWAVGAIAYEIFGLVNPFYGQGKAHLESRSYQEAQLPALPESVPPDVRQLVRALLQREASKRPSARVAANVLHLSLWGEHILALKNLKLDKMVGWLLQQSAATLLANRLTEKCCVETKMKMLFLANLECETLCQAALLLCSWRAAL
FLAG-tagged FBW7β (F-box and WD repeat domain-containing 7, beta isoform), expressed in HEK293 (Q969H0-2, form named): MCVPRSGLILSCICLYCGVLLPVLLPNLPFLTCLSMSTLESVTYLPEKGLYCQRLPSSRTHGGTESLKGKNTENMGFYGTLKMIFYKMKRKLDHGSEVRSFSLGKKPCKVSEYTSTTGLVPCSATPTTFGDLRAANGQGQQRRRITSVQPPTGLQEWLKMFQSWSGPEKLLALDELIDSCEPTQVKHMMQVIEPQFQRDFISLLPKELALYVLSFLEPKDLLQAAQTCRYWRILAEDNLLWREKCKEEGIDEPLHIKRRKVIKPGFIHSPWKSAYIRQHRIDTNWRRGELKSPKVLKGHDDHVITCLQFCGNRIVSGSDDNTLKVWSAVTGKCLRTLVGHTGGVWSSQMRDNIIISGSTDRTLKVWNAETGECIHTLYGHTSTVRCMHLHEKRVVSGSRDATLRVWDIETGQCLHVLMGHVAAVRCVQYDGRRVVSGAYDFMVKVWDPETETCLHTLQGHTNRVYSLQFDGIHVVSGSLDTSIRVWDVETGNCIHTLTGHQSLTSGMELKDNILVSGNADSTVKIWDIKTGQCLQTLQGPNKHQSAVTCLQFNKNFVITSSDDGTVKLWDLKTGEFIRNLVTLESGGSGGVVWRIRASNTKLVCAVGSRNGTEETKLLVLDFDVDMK
FLAG-tagged FBW7γ (F-box and WD repeat domain-containing 7, gamma isoform) (Q969H0-4, form named): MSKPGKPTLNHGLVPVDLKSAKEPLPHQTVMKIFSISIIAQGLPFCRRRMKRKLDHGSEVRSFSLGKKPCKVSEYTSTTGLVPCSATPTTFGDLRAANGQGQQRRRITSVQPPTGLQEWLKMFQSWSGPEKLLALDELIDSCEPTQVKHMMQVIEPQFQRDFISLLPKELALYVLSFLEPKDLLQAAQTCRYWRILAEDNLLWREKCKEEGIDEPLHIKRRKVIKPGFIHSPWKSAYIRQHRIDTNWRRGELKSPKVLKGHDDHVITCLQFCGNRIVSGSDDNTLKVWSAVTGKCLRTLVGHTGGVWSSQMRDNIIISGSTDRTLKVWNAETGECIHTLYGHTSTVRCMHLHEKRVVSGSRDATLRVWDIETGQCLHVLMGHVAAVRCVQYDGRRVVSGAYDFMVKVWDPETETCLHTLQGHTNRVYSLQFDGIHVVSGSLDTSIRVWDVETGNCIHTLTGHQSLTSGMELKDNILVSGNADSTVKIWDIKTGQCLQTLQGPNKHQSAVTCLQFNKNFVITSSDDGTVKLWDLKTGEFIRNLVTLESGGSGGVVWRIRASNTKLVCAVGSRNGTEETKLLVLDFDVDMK

Substance | binding [3] | other results
FLAG-tagged FBW7β, transiently overexpressed in SH-SY5Y cells (from UniProt Q969H0-2 1-627) |  | binding [1]: binds
endogenous FBW7β of SH-SY5Y cells (from UniProt Q969H0-2 1-627) |  | binding [2]: binds
FLAG-tagged FBW7β (F-box and WD repeat domain-containing 7, beta isoform), expressed in HEK293 (from UniProt Q969H0-2 1-627) | binds | 
FLAG-tagged FBW7γ (F-box and WD repeat domain-containing 7, gamma isoform) (from UniProt Q969H0-4 1-589) | binds | 
FLAG-tagged FBW7α (F-box and WD repeat domain-containing 7, alpha isoform) (from UniProt Q969H0-1 1-707) | binds | 

Source: paper PMC11026729
